According to patent publication US20120196828A1, “SENSITIZATION OF CANCER CELLS TO TREATMENT” (priority 2011, published 2012):

Tested on: BxPC-3 Human Pancreas Tumor Xenograft
Assay: BxPC-3 human pancreas tumor xenograft model: tumor weight and tumor growth inhibition
Assay type: in vivo, mouse
Details: for Day tumor necrosis was first observed: in vivo; for Tumors demonstrating some level of necrosis: of ten tumors, attributed to normal progression of the xenograft model
Description: Compounds tested in the experiment were as follows. […] A concentration of 4.8 mg/ml was formulated to deliver a 24 mg/kg dose at a 5 ml/kg dose volume when administered subcutaneously. […] Nab-paclitaxel was manufactured by Abraxis BioScience LLC (Bridgewater, N.J.) and diluted in a 0.9% NaCl solution to a concentration of 1.5 mg/ml to deliver 15 mg/kg, in a 10 ml/kg dose volume. All standard agent preparations were made fresh prior to their administration.
BxPC-3 cells were obtained and prepared as follows. The BxPC-3 pancreas tumor cell line was received from American Type Culture Collection (ATCC, Manassas, Va.). Cultures were maintained in RPMI 1640 medium (Hyclone, Logan, Utah) supplemented with 5% fetal bovine serum. The cells were housed in a 5% CO2 atmosphere. The cultures were expanded in tissue culture flasks at a 1:3 split ratio until a sufficient amount of cells were harvested.
All experiments were conducted on female athymic nude mice (Hsd:Athymic Nude-Foxn1nu) supplied by Harlan (Indianapolis, Ind.). Mice were received at four weeks of age, 12-15 grams in weight, and were acclimated for seven days prior to handling. The mice were housed in microisolator cages (Lab Products, Seaford, Del.) and maintained under specific pathogen-free conditions. All procedures were carried out under appropriate institutional guidelines for animal care.
BxPC-3 Human Pancreas Tumor Xenograft Model: Female athymic nude mice per treatment condition were inoculated subcutaneously in the right flank with 0.1 ml of a 50% RPMI 1640/50% Matrigel™ (BD Biosciences, Bedford, Mass.) mixture containing a suspension of BxPC-3 tumor cells (approximately 5×10^6 cells/mouse).
Seven days following inoculation, tumors were measured using calipers and tumor weight was calculated using the animal study management software, Study Director V.1.7.54 k (Study Log). See Britten C D, et al. Enhanced antitumor activity of 6-hydroxymethylacylfulvene in combination with irinotecan and 5-fluorouracil in the HT29 human colon tumor xenograft model. Cancer Res 59:1049-1053, 1999. […] Body weights were recorded when the mice were randomized and were taken twice weekly thereafter in conjunction with tumor measurements, on each of Days 1, 4, 8, 11, 15, 18, 22, 26, 30, 33, and 36.
The study was terminated when the vehicle control reached an endpoint of 1500 mg, on Day 36.
Mean tumor growth inhibition (TGI) was calculated utilizing Formula A below (deaths were not included in the TGI calculations).
All statistical analyses in the xenograft study were performed with GraphPad Prism® v4 software.

Compound | Day tumor necrosis was first observed | Tumors demonstrating some level of necrosis
2-O, 3-O desulfated heparin [ODSH] | 30 days | Three of ten
Nc1ccn([C@@H]2O[C@H](CO)[C@@H](O)C2(F)F)c(=O)n1 [Gemcitabine] | 26 days | Four of the ten
O=C1[O][Pt]2([NH][C@@H]3CCCC[C@H]3[NH]2)[O]C1=O [Oxaliplatin] | 26 days | Three of ten
